Measurements as given in publication PMC6868827.
These are yes or no findings as the source states them, for the method shown. Binding seen in cells or lysates may run through a third protein. Some entries that bind do so weakly or less than the wild type.

Amino acid sequences for entries named in this document (tags omitted). A change or cut given only in a name is not applied to a line headed by its entry.
UniProt O75925: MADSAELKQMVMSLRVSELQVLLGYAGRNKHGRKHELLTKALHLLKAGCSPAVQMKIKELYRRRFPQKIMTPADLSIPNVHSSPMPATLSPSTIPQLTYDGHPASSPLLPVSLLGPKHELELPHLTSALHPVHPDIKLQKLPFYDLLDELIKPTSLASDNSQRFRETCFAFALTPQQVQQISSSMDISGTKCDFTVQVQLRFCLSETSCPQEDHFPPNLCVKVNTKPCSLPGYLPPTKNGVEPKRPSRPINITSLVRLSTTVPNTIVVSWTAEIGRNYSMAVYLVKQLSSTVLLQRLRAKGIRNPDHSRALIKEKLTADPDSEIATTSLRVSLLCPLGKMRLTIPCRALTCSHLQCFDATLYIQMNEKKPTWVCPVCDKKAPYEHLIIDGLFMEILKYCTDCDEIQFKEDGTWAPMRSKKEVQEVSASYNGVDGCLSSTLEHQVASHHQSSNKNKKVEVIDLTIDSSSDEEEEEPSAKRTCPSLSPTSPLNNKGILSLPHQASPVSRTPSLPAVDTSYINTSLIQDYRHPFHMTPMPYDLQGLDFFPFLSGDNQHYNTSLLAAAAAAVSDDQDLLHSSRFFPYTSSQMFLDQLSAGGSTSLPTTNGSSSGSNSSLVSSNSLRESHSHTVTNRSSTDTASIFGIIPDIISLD
UniProt Q00987: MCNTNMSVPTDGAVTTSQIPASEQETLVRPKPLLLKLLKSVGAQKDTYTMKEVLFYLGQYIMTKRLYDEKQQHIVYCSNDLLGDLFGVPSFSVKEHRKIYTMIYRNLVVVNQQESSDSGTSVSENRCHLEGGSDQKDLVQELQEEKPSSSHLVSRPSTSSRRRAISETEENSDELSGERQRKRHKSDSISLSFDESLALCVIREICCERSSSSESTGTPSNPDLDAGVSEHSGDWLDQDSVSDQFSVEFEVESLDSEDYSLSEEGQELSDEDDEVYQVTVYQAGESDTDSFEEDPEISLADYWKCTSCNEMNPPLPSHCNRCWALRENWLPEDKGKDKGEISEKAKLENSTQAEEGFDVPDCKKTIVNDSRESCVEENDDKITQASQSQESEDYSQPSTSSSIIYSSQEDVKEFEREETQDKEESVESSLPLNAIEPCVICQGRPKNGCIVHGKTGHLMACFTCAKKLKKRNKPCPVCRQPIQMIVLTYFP

Assays:
Assay in all cases: co-IP; DU145 cells co-transfected for 48 h (myc-PIAS1 or myc-PIAS1 K117L, with or without SUMO3 and AR), cross-linked with 1-2 mM dithio-bis succinimidyl propionate for 30 min, lysed in 50 mM Tris-HCl pH 7.4/150 mM NaCl/1% NP-40/1 mM EDTA; immunoprecipitation with anti-myc antibody at 4 °C for 3 h
[1] = molecular target: PIAS1 K117L (myc-PIAS1 (K117 L)) (human) (UniProt O75925)
[2] = molecular target: SUMO3-modified PIAS1 (myc-PIAS1 conjugated with SUMO3 at K117, ~120 kDa) (UniProt O75925)
[3] = molecular target: PIAS1 (myc-PIAS1, unmodified, ~71 kDa) (human) (UniProt O75925)

## MDM2 (double minute 2 protein, ubiquitin E3 ligase) (from UniProt Q00987 1-491)
[1]
  binding: no binding
[2]
  binding: binds
[3]
  binding: no binding
